Laboratory results: PubChem BioAssay AID602313 (National Center for Advancing Translational Sciences (NCATS), 2012)
Screen size: about 390,000 compounds; about 760 (0.19%) were called active. Inconclusive means that the source gave no clear call. Such entries were picked first, then a sample of the others. Calls come from the whole dose curve; as a rule, active = well fitted inhibition curve with a large enough effect; inconclusive = small, poorly fitted or top-dose-only effect; inactive = flat fitted curve, though single readings scatter. A potency beside an inconclusive call is a rough fit, not a confirmed value.

assay: qHTS for Inhibitors of Vif-A3F Interactions: qHTS; settings: HeLa A3F-eYFP + Vif (tagged APOBEC3F with the HIV-1 protein that degrades it), YFP fluorescence increase; series mostly up to 46.1 µM; note: nearly all actives have a fitted effect of over 65% in size
Method in brief: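 HeLa cells stably expressing A3F-eYFP plus Vif, plated and incubated overnight at 37 deg C, then exposed to compounds overnight at 37 deg C. Blocked degradation read as raised yellow fluorescence (Ex 488/Em 500-530).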
Potency is the fitted concentration of half-maximal effect.

Row | Compound | Potency
1 | COCCOC(=O)c1[nH]c2c(c1C)C(=O)CC(c1cccs1)C2 (stereo unspecified) | inactive
2 | COc1ccc(OC)c(C2C(C#N)=C(N)N(N(C)C)C3=C2C(=O)CCC3)c1 (stereo unspecified) | inconclusive: 3.55 µM [inhibitor, partial curve, poor fit]
3 | N#C/C(=C(/O)CCl)c1nc(-c2ccccc2)cs1 | inconclusive: 25.1 µM [inhibitor, single point]
4 | CC(=O)c1ccc(OCC(O)CN2CCc3ccccc3C2)cc1 (stereo unspecified) | inconclusive: 2.24 µM [inhibitor, partial curve, poor fit]
5 | C[C@@H]1CN([C@H](C)CO)C(=O)Cc2cc(NC(=O)Nc3ccccc3)ccc2O[C@@H]1CN(C)C(=O)Nc1ccc2c(c1)OCO2 | inactive
6 | O=C(CCn1c(=O)c2sccc2n(Cc2ccccc2F)c1=O)NCc1ccc2c(c1)OCO2 | inactive
7 | COc1cccc(NC2=C(Cl)C(=O)OC2OC(=O)c2ccco2)c1 (stereo unspecified) | inconclusive: 3.55 µM [inhibitor, single point]
8 | O=C(CSc1nc2nc3c(cc2c(=O)n1-c1ccccc1)CCCC3)Nc1ccccc1 | inconclusive: 25.1 µM [inhibitor, single point]
9 | O=C(CCC1CCCC1)N1CCN(C(=O)C2CC2)CC1 | inconclusive: 35.5 µM [inhibitor, single point]
10 | CCOC(=O)C1(CCc2ccccc2)CCN(C(=O)c2occc2C)CC1 | inconclusive: 1.12 µM [inhibitor, full curve, poor fit]
11 | CS(=O)(=O)N1CCC(C(=O)N2CCN(c3ccccc3F)CC2)CC1 | inconclusive: 1.12 µM [inhibitor, partial curve, poor fit]
12 | O=C(CCNS(=O)(=O)c1ccc2c(c1)CCCC(=O)N2)Nc1cccc(Cl)c1 | inactive
13 | CNC(=O)CC1C(=O)N(c2ccc(Cl)cc2)C(=S)N1NC(=O)c1cccc(F)c1 (stereo unspecified) | inactive
14 | Cc1cc(NC(=O)CCc2nc3cccnc3n2-c2ccccc2)ccc1Br | inactive
15 | CC(/C=N/NC(=O)CSc1nc(C)cc(C)n1)=C\c1ccccc1 | inconclusive: 22.4 µM [inhibitor, partial curve, poor fit]
16 | O=C1OCC2=C1C(c1cccc(Cl)c1)CC(=O)N2c1ccc(C(F)(F)F)cc1 (stereo unspecified) | inactive
17 | C[C@@H]1CN([C@H](C)CO)C(=O)c2cc(NC(=O)Nc3ccc(C(F)(F)F)cc3)ccc2O[C@H]1CN(C)S(=O)(=O)c1cccs1 | inactive
18 | COCCn1c(SCC(=O)Nc2cc(Cl)ccc2OC)nc2c([nH]c3ccccc32)c1=O | inconclusive: 35.5 µM [inhibitor, single point]
19 | CN1CCN(c2ccc(NC(=O)c3ccc([N+](=O)[O-])o3)cc2Cl)CC1 | inactive
20 | CCOc1cc(/C=N/N=C(/N)c2nonc2N)cc(Br)c1OCc1ccc(Cl)cc1 | inconclusive: 15.8 µM [inhibitor, single point]
21 | O=C(Nc1cc(Cl)ccc1F)c1ccc(-n2cncn2)c([N+](=O)[O-])c1 | inactive
22 | Cc1cc(C)n(-c2nc3ccccc3nc2Nc2ccc(N(C)C)cc2)n1 | inconclusive: 12.6 µM [inhibitor, partial curve, poor fit]

Row | Compound | Potency
23 | COc1ccccc1-n1cc2c([N+](=O)[O-])cc([N+](=O)[O-])cc2n1 | inconclusive: 11.2 µM [inhibitor, partial curve, poor fit]
24 | CCOC(=O)c1sc(NC(=S)NC(=O)C2CCCC2)cc1C | inconclusive: 3.55 µM [inhibitor, single point]
25 | CC1CCc2c(sc(Nc3nc4c(F)cccc4s3)c2C(N)=O)C1 (stereo unspecified) | inconclusive: 31.6 µM [inhibitor, single point]
26 | Cc1[nH]c2ccc(C(=O)N3CCN(c4ccccc4Cl)CC3)cc2c1C | inactive
27 | CCn1nnnc1SCC(=O)Nc1cccc(NC(C)=O)c1 | inactive
28 | O=C(CN(CC1CCCO1)C(=O)CNS(=O)(=O)c1ccc(F)cc1)NCc1ccccc1 (stereo unspecified) | inconclusive: 10 µM [inhibitor, partial curve, poor fit]
29 | O=C(NN=Cc1c(O)ccc2ccccc12)c1ccncc1 | inconclusive: 35.5 µM [inhibitor, single point]
30 | COc1ccc(C(=O)NNC(=O)c2ccccc2[N+](=O)[O-])cc1[N+](=O)[O-] | inconclusive: 2.82 µM [inhibitor, single point]
31 | NC(=O)CCn1c(C(=O)c2cc(Cl)c(N)c(Cl)c2)c2ccccc2[n+]1[O-] | inconclusive: 12.6 µM [inhibitor, single point]
32 | Cc1ccc(OCCN2C(=O)S/C(=C\c3ccc(C)o3)C2=O)cc1 | inconclusive: 25.1 µM [inhibitor, single point]
33 | CNc1cc(F)nc(F)n1 | inconclusive: 14.1 µM [inhibitor, single point]
34 | COc1ccc(CN2CCC3CC2c2cc(-c4cccc(C)c4)ccc23)cc1 (stereo unspecified) | inconclusive: 15.8 µM [inhibitor, single point]
35 | Cc1ccc(Cl)cc1NC(=O)C1CCN(c2nnc(C)c3c(C)n(-c4ccccc4)nc23)CC1 | inconclusive: 3.98 µM [inhibitor, full curve, poor fit]
36 | COc1ccc(C2CC(c3cccc(Br)c3)=NN2c2ccc(S(N)(=O)=O)cc2)cc1 (stereo unspecified) | inactive
37 | COc1ccc(NS(=O)(=O)c2cn(C)c(=O)n(C)c2=O)cc1 | inactive
38 | CCOC(=O)C1(Cc2ccc(OC)cc2)CCN(C(=O)[C@@H]2CCCN2C(C)=O)CC1 | inconclusive: 10 µM [inhibitor, partial curve]
39 | COc1ccc(/C=C2\Sc3ccc(C(=O)NCC4CCCO4)cc3N(C)C2=O)cc1 (stereo unspecified) | inactive
40 | Cc1cccc(Cl)c1NC(=S)N1CCN(c2ccc([N+](=O)[O-])cn2)CC1 | inconclusive: 35.5 µM [inhibitor, single point]
41 | Cc1ccc(N(CC(=O)NCCc2ccc(Cl)cc2)S(=O)(=O)c2c(C)noc2C)cc1 | inactive
42 | COc1ccc(CN(C)C(=O)CSc2nnc(C3CC3)n2C2CC2)cc1 | inconclusive: 10 µM [inhibitor, partial curve]
43 | N#Cc1c(Nc2ccccc2)[n+]([O-])c2ccc(Cl)cc2[n+]1[O-] | inconclusive: 14.1 µM [inhibitor, partial curve, poor fit]
44 | Cc1cc(C(=O)Nc2ccc([N+](=O)[O-])cn2)cs1 | inactive

Individual results from the entries so far:
Potency, O=C(CN(CC1CCCO1)C(=O)CNS(=O)(=O)c1ccc(F)cc1)NCc1ccccc1 (stereo unspecified) is entered as inconclusive: 10 µM [inhibitor, partial curve, poor fit]
Potency, COc1ccc(/C=C2\Sc3ccc(C(=O)NCC4CCCO4)cc3N(C)C2=O)cc1 (stereo unspecified) is entered as inactive
Potency, Cc1ccc(Cl)cc1NC(=O)C1CCN(c2nnc(C)c3c(C)n(-c4ccccc4)nc23)CC1 is entered as inconclusive: 3.98 µM [inhibitor, full curve, poor fit]

Additional records follow.

Row | Compound | Potency
45 | O=Cc1ccc(N2CCCC2)c([N+](=O)[O-])c1 | inconclusive: 35.5 µM [inhibitor, single point]
46 | CC1Cc2cc(S(=O)(=O)N3CCC(C(N)=O)CC3)ccc2N1C(=O)C1CC1 (stereo unspecified) | inconclusive: 35.5 µM [inhibitor, single point]
47 | COc1ccc(S(=O)(=O)N(C)C[C@H]2Oc3ccc(NC(=O)Cc4ccccc4)cc3C(=O)N([C@H](C)CO)C[C@@H]2C)cc1 | inactive
48 | CCc1ccc(C(=O)c2cn(CC(=O)Nc3ccc4c(c3)OCO4)c3ccc(CC)cc3c2=O)cc1 | inconclusive: 6.31 µM [inhibitor, partial curve, poor fit]
49 | COc1ccc(C2NC(=S)NC3=C2CCCC3=C2SCCS2)cc1 (stereo unspecified) | inconclusive: 6.31 µM [inhibitor, partial curve, poor fit]
50 | Cc1ccc(C)c2nc3sc(C(=O)N4CCCc5ccccc54)c(N)c3cc12 | inconclusive: 3.55 µM [inhibitor, partial curve, poor fit]
51 | Cc1ccc(-n2nnnc2SCc2nc3sc(C)c(C)c3c(=O)[nH]2)cc1 | inconclusive: 14.1 µM [inhibitor, partial curve, poor fit]
52 | CCCc1nc2ccccc2n1C(=S)SC | inconclusive: 12.6 µM [inhibitor, partial curve, poor fit]
53 | O=C1OC(CN(Cc2ccccc2)Cc2ccccc2)CN1N=Cc1ccc([N+](=O)[O-])o1 (stereo unspecified) | inconclusive: 11.2 µM [inhibitor, partial curve, poor fit]
54 | O=C(CCN1C(=O)/C(=C\c2ccccc2)SC1=S)N1CCCCC1 | inactive
55 | c1ccc2c(c1)CCN(C1=Nc3cccc4cccc1c34)C2 | inconclusive: 35.5 µM [inhibitor, single point]
56 | CC(=O)Nc1ccc(-n2c(C)ccc2C)cc1 | inconclusive: 35.5 µM [inhibitor, single point]
57 | COc1ccccc1/C=C1\SC(=S)N(NS(=O)(=O)c2ccc(C)cc2)C1=O | inactive
58 | CCOc1cc(/C=C(\C#N)C(=O)Nc2cccc(C(=O)O)c2)cc(Br)c1OC(=O)c1ccc(OC)cc1 | inconclusive: 35.5 µM [inhibitor, single point]
59 | CCNc1nc(Oc2ccc(C(=O)OCC)cc2)nc(SC)n1 | inactive
60 | COc1cc(/C=C2\SC(=S)N(NC(=O)c3cccc(O)c3)C2=O)ccc1O | inconclusive: 35.5 µM [inhibitor, single point]
61 | N#C/C(=C\c1ccc(-c2ccccc2[N+](=O)[O-])o1)C(N)=O | inconclusive: 35.5 µM [inhibitor, single point]
62 | O=C(Nc1nc(-c2ccccn2)cs1)c1ccco1 | inconclusive: 35.5 µM [inhibitor, single point]
63 | Cc1cc(C(=O)CSc2nc3ccccc3o2)c(C)n1C1CC1 | inactive
64 | O=C(NC(=S)Nc1ccc(NC(=O)c2cccs2)cc1)c1cc2ccccc2o1 | inactive
65 | CC(OC(=O)c1ccc([N+](=O)[O-])s1)C(=O)NC1CCCCC1C (stereo unspecified) | inconclusive: 25.1 µM [inhibitor, single point]
66 | CC1=C(C(=O)OC2CCCCC2)C(c2ccc(N(C)C)cc2)NC(=O)N1 (stereo unspecified) | inconclusive: 35.5 µM [inhibitor, single point]

Quoted at random: 2 compounds from above, in no set order.
Row | Compound | Potency
61 | N#C/C(=C\c1ccc(-c2ccccc2[N+](=O)[O-])o1)C(N)=O | inconclusive: 35.5 µM [inhibitor, single point]
56 | CC(=O)Nc1ccc(-n2c(C)ccc2C)cc1 | inconclusive: 35.5 µM [inhibitor, single point]
